Reference: the supplement of paper PMC8728848
The other results are listed elsewhere or left out.

Assays:
Assay in all cases: glycan array binding signal (z-score within array); higher = stronger binding
Settings in all cases: glycan notation: IUPAC condensed, linker removed
[1] = molecular target: Gal(b1-2)Gal
Summary of the method: (§1)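 Glycan array binding is given as a within-array Z-score, which can be read as non-binding when negative. The arrays, 3228 of them, came from the Consortium for Functional Glycomics database and were retained only where the protein sequence was available. Z-scores were averaged across arrays of the same protein sequence at different concentrations or buffers and across linkers.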

[2] = molecular target: Gal(b1-3)Gal
Summary of the method: as §1

[3] = molecular target: Gal(b1-3)Gal(b1-4)GlcNAc
Summary of the method: as §1

[4] = molecular target: Gal(b1-3)GalNAc
Summary of the method: as §1

[5] = molecular target: Gal(b1-3)GalNAc(a1-3)[Fuc(a1-2)]Gal(b1-4)Glc
Summary of the method: as §1

[6] = molecular target: Gal(b1-3)GalNAc(a1-3)[Fuc(a1-2)]Gal(b1-4)GlcNAc
Summary of the method: as §1

[7] = molecular target: Gal(b1-3)GalNAc(b1-3)Gal
Summary of the method: as §1

[8] = molecular target: Gal(b1-3)GalNAc(b1-3)Gal(a1-4)Gal(b1-4)Glc
Summary of the method: as §1

[9] = molecular target: Gal(b1-3)GalNAc(b1-4)Gal(b1-4)Glc
Summary of the method: as §1

[10] = molecular target: Gal(b1-3)GalNAc(b1-4)[Neu5Ac(a2-3)]Gal(b1-4)Glc
Summary of the method: as §1

[11] = molecular target: Gal(b1-3)GlcNAc
Summary of the method: as §1

[12] = molecular target: Gal(b1-3)GlcNAc(a1-3)Gal(b1-4)GlcNAc
Summary of the method: as §1

[13] = molecular target: Gal(b1-3)GlcNAc(a1-6)Gal(b1-4)GlcNAc
Summary of the method: as §1

[14] = molecular target: Gal(b1-3)GlcNAc(b1-2)Man
Summary of the method: as §1

[15] = molecular target: Gal(b1-3)GlcNAc(b1-2)Man(a1-3)[Gal(b1-3)GlcNAc(b1-2)Man(a1-6)]Man(b1-4)GlcNAc(b1-4)GlcNAc
Summary of the method: as §1

[16] = molecular target: Gal(b1-3)GlcNAc(b1-2)Man(a1-3)[Gal(b1-3)GlcNAc(b1-2)Man(a1-6)]Man(b1-4)GlcNAc(b1-4)[Fuc(a1-6)]GlcNAc
Summary of the method: as §1

[17] = molecular target: Gal(b1-3)GlcNAc(b1-2)Man(a1-3)[GlcNAc(b1-4)][Gal(b1-3)GlcNAc(b1-2)Man(a1-6)]Man(b1-4)GlcNAc(b1-4)GlcNAc
Summary of the method: as §1

[18] = molecular target: Gal(b1-3)GlcNAc(b1-2)[Gal(b1-3)GlcNAc(b1-6)]Man(a1-6)[Gal(b1-3)GlcNAc(b1-2)Man(a1-3)]Man(b1-4)GlcNAc(b1-4)GlcNAc
Summary of the method: as §1

[19] = molecular target: Gal(b1-3)GlcNAc(b1-3)Gal(b1-3)GlcNAc
Summary of the method: as §1

[20] = molecular target: Gal(b1-3)GlcNAc(b1-3)Gal(b1-4)Glc
Summary of the method: as §1

[21] = molecular target: Gal(b1-3)GlcNAc(b1-3)Gal(b1-4)GlcNAc
Summary of the method: as §1

[22] = molecular target: Gal(b1-3)GlcNAc(b1-3)Gal(b1-4)GlcNAc(b1-2)Man(a1-3)[Gal(b1-3)GlcNAc(b1-3)Gal(b1-4)GlcNAc(b1-2)Man(a1-6)]Man(b1-4)GlcNAc(b1-4)GlcNAc
Summary of the method: as §1

[23] = molecular target: Gal(b1-3)GlcNAc(b1-3)Gal(b1-4)GlcNAc(b1-2)[Gal(b1-3)GlcNAc(b1-3)Gal(b1-4)GlcNAc(b1-6)]Man(a1-6)[Gal(b1-3)GlcNAc(b1-3)Gal(b1-4)GlcNAc(b1-2)Man(a1-3)]Man(b1-4)GlcNAc(b1-4)[Fuc(a1-6)]GlcNAc
Summary of the method: as §1

[24] = molecular target: Gal(b1-3)GlcNAc(b1-3)Gal(b1-4)GlcNAc(b1-3)Gal(b1-4)GlcNAc(b1-2)[Gal(b1-3)GlcNAc(b1-3)Gal(b1-4)GlcNAc(b1-3)Gal(b1-4)GlcNAc(b1-6)]Man(a1-6)[Gal(b1-3)GlcNAc(b1-3)Gal(b1-4)GlcNAc(b1-3)Gal(b1-4)GlcNAc(b1-2)Man(a1-3)]Man(b1-4)GlcNAc(b1-4)[Fuc(a1-6)]GlcNAc
Summary of the method: as §1

[25] = molecular target: Gal(b1-3)GlcNAc(b1-3)Gal(b1-4)GlcNAc(b1-6)[Gal(b1-3)GlcNAc(b1-3)]Gal(b1-4)Glc
Summary of the method: as §1

[26] = molecular target: Gal(b1-3)GlcNAc(b1-3)Gal(b1-4)[Fuc(a1-3)]GlcNAc
Summary of the method: as §1

[27] = molecular target: Gal(b1-3)GlcNAc(b1-3)Gal(b1-4)[Fuc(a1-3)]GlcNAc(b1-6)[Gal(b1-3)GlcNAc(b1-3)]Gal(b1-4)Glc
Summary of the method: as §1

[28] = molecular target: Gal(b1-3)GlcNAc(b1-3)GalNAc
Summary of the method: as §1

[29] = molecular target: Gal(b1-3)GlcNAc(b1-6)Gal(b1-4)GlcNAc
Summary of the method: as §1

[30] = molecular target: Gal(b1-3)GlcNAc(b1-6)GalNAc
Summary of the method: as §1

[31] = molecular target: Gal(b1-3)GlcNAc(b1-6)[Gal(b1-3)]GalNAc
Summary of the method: as §1

[32] = molecular target: Gal(b1-3)GlcNAc6S
Summary of the method: as §1

[33] = molecular target: Gal(b1-3)[Fuc(a1-4)]GlcNAc
Summary of the method: as §1

[34] = molecular target: Gal(b1-3)[Fuc(a1-4)]GlcNAc(b1-2)Man
Summary of the method: as §1

[35] = molecular target: Gal(b1-3)[Fuc(a1-4)]GlcNAc(b1-2)Man(a1-3)[Gal(b1-3)[Fuc(a1-4)]GlcNAc(b1-2)Man(a1-6)]Man(b1-4)GlcNAc(b1-4)[Fuc(a1-6)]GlcNAc
Summary of the method: as §1

[36] = molecular target: Gal(b1-3)[Fuc(a1-4)]GlcNAc(b1-3)Gal(b1-3)[Fuc(a1-4)]GlcNAc
Summary of the method: as §1

[37] = molecular target: Gal(b1-3)[Fuc(a1-4)]GlcNAc(b1-3)Gal(b1-4)[Fuc(a1-3)]GlcNAc
Summary of the method: as §1

[38] = molecular target: Gal(b1-3)[Fuc(a1-4)]GlcNAc(b1-6)GalNAc
Summary of the method: as §1

[39] = molecular target: Gal(b1-3)[GlcNAc(b1-6)]GalNAc
Summary of the method: as §1

[40] = molecular target: Gal(b1-3)[Neu5Ac(a2-6)]GalNAc
Summary of the method: as §1

[41] = molecular target: Gal(b1-3)[Neu5Ac(a2-6)]GlcNAc(b1-4)Gal(b1-4)Glc
Summary of the method: as §1

[42] = molecular target: Gal(b1-3)[Neu5Ac(b2-6)]GalNAc
Summary of the method: as §1

[43] = molecular target: Gal(b1-4)Gal
Summary of the method: as §1

[44] = molecular target: Gal(b1-4)GalNAc(a1-3)[Fuc(a1-2)]Gal(b1-4)GlcNAc
Summary of the method: as §1

[45] = molecular target: Gal(b1-4)GalNAc(b1-3)[Fuc(a1-2)]Gal(b1-4)GlcNAc
Summary of the method: as §1

B1: Mincle (Bos taurus) (protein)
chain: MNSSTSPASQTERRCFSFQLFSWAIAGTSILLLSACFITRCVVTYSIFQLCDEKKFQPPGDSMELSCYNDGSGSVKNCCPLKWFHFQSSCYLFSPDTMSWRASLKNCSSMGAHLVVINTQEEQEFLYYTKPRKKEFYIGLTDQVTEGQWQWVDGTPFTKSLSFWDAGEPNNLVIVEDCATIRDSSNPRQNWNDVPCFFNMFRVCEMPERKI
[1]
  glycan array binding signal (z-score): -0.325
[2]
  glycan array binding signal (z-score): -0.063
[3]
  glycan array binding signal (z-score): -0.462
[4]
  glycan array binding signal (z-score): -0.37
[5]
  glycan array binding signal (z-score): -0.069
[6]
  glycan array binding signal (z-score): -0.936
[7]
  glycan array binding signal (z-score): -0.104
[8]
  glycan array binding signal (z-score): 0.036
[9]
  glycan array binding signal (z-score): -0.247
[10]
  glycan array binding signal (z-score): -0.836
[11]
  glycan array binding signal (z-score): -0.316
[12]
  glycan array binding signal (z-score): 0.206
[13]
  glycan array binding signal (z-score): -1.05
[14]
  glycan array binding signal (z-score): 0.665
[15]
  glycan array binding signal (z-score): 1.51
[16]
  glycan array binding signal (z-score): 0.025
[17]
  glycan array binding signal (z-score): -0.111
[18]
  glycan array binding signal (z-score): 0.677
[19]
  glycan array binding signal (z-score): -0.276
[20]
  glycan array binding signal (z-score): -1.08
[21]
  glycan array binding signal (z-score): -0.412
[22]
  glycan array binding signal (z-score): 0.271
[23]
  glycan array binding signal (z-score): 0.819
[24]
  glycan array binding signal (z-score): 1.13
[25]
  glycan array binding signal (z-score): 0.097
[26]
  glycan array binding signal (z-score): 0.49
[27]
  glycan array binding signal (z-score): -0.318
[28]
  glycan array binding signal (z-score): -0.057
[29]
  glycan array binding signal (z-score): -0.635
[30]
  glycan array binding signal (z-score): 0.492
[31]
  glycan array binding signal (z-score): -0.596
[32]
  glycan array binding signal (z-score): -0.773
[33]
  glycan array binding signal (z-score): -0.531
[34]
  glycan array binding signal (z-score): 1.34
[35]
  glycan array binding signal (z-score): 0.051
[36]
  glycan array binding signal (z-score): -0.618
[37]
  glycan array binding signal (z-score): -0.683
[38]
  glycan array binding signal (z-score): 1.35
[39]
  glycan array binding signal (z-score): 0.055
[40]
  glycan array binding signal (z-score): -1.03
[41]
  glycan array binding signal (z-score): -0.603
[42]
  glycan array binding signal (z-score): -0.475
[43]
  glycan array binding signal (z-score): -0.069
[44]
  glycan array binding signal (z-score): -0.586
[45]
  glycan array binding signal (z-score): -0.357
